{"source": "PubChem BioAssay AID504834", "about": "(National Center for Advancing Translational Sciences (NCATS), 2011)", "note": "The whole screen tested about 320,000 compounds, of which about 22,000 (6.9%) were called active. The inconclusive results got no clear call from the source; some entries with a clear call stand among them for comparison. Calls follow the shape of the dose curve; as a rule, active = well fitted inhibition curve with a large enough effect; inconclusive = small, poorly fitted or top-dose-only effect, or another doubt; inactive = no such curve, though single readings can be large or run the other way. Potencies of inconclusive entries are doubtful fits and often do not repeat. Potency is read from the fitted curve at half-maximal effect."}
{"test": "Primary qHTS for delayed death inhibitors of the malarial parasite plastid, 96 hour incubation", "settings": "P. falciparum luciferase reporter growth; series mostly up to 28.7 µM", "procedure,_shortened": "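Luminescence readout: decreased luciferase signal marks inhibited growth of reporter-expressing P. falciparum in infected red cells (2% hematocrit, 0.05% parasitemia final), exposed to compound two generations (96 h, 37 C, 5% CO2).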"}
{"smiles": "CC1(C)C(c2cccs2)=[N+]([O-])C2(CCCCC/C2=N\\NC(N)=O)N1O", "note": "(stereo unspecified)", "Potency": "inconclusive: 18.5 µM [inhibitor, single point]"}
{"smiles": "CN1C[C@@H]2C(c3ccc(Cl)nc3)C3(c4ccccc4)CC2(C3)[C@H]1c1ccccc1", "note": "(stereo partly specified)", "Potency": "active: 13.1 µM"}
{"smiles": "CCOC(=O)C1=C(c2ccccc2)N=c2s/c(=C\\c3ccco3)c(=O)n2C1c1cccs1", "note": "(stereo unspecified)", "Potency": "inactive"}
{"smiles": "COc1cccc(N(C(=O)CCl)C(C(=O)NCCc2ccccc2)c2cccs2)c1", "note": "(stereo unspecified)", "Potency": "active: 9.28 µM"}
{"smiles": "Cc1ccc(C)n1-c1ncc(Br)cn1", "Potency": "inactive"}
{"smiles": "COc1ccc(S(=O)(=O)NCC2CCCN(C(=O)CSC)C2)cc1", "note": "(stereo unspecified)", "Potency": "inconclusive: 4.15 µM [inhibitor, single point]"}
{"smiles": "COc1ccc(N2CCN(C(=O)c3cc(=O)c4cc(Cl)ccc4o3)CC2)cc1", "Potency": "inconclusive: 18.5 µM [inhibitor, single point]"}
{"smiles": "Cc1cc(C)c(C)c(S(=O)(=O)Nc2ccccc2C(=O)NCCCN2CCOCC2)c1C", "Potency": "inactive"}
{"smiles": "Cc1ccccc1C(=O)NCCCNC(=O)c1cnccn1", "Potency": "inconclusive: 0.0586 µM [inhibitor, full curve, poor fit]"}
{"smiles": "c1ccc(CNc2ccccn2)cc1", "Potency": "inactive"}
{"smiles": "COC(=O)CC(c1ccc(C(C)C)cc1)n1cccc1", "note": "(stereo unspecified)", "Potency": "inconclusive: 18.5 µM [inhibitor, single point]"}
{"smiles": "Cc1cccc(-c2c3c(=O)n(C)c(=O)n(C)c3cn2C(C)C)c1", "Potency": "inconclusive: 9.28 µM [inhibitor, partial curve, poor fit]"}
{"smiles": "Cc1cccc(/C=c2\\s/c(=C\\C(=O)C(C)(C)C)[nH]c2=O)c1", "Potency": "active: 2.08 µM"}
{"smiles": "CC(=O)N1c2c(cc(Br)cc2S(=O)(=O)N2CCN(c3ccccn3)CC2)CC1C", "note": "(stereo unspecified)", "Potency": "inconclusive: 18.5 µM [inhibitor, single point]"}
{"smiles": "CC(NC(=O)c1cnc2n(c1=O)CCS2)c1ccccc1", "note": "(stereo unspecified)", "Potency": "inactive"}
{"smiles": "NC(=O)COC(=O)c1ccc(S(=O)(=O)N2CCCCCC2)cc1", "Potency": "inconclusive: 3.29 µM [inhibitor, single point]"}
{"smiles": "CN(CCNC(=O)c1cn(C)c2ccc(S(=O)(=O)N(C)C)cc2c1=O)CCc1ccccc1", "Potency": "inconclusive: 10.4 µM [inhibitor, single point]"}
{"smiles": "Cn1c(=O)c(=O)n(C)c2cc(S(=O)(=O)N3CCN(c4cccc(C(F)(F)F)c4)CC3)ccc21", "Potency": "inconclusive: 11.7 µM [inhibitor, single point]"}
{"smiles": "O=C(NCc1ccc2c(c1)OCO2)c1ccc(CN2CCc3ccccc3C2)cc1", "Potency": "inconclusive: 10.4 µM [inhibitor, partial curve, poor fit]"}
{"smiles": "COc1cccc(F)c1C(C[N+](=O)[O-])c1c(N)n(C)c(=O)n(C)c1=O", "note": "(stereo unspecified)", "Potency": "active: 13.1 µM"}
{"smiles": "CCN1CCCc2cc(CN(CCN3CCOCC3)C(=S)Nc3cccc(OC)c3)ccc21", "Potency": "inconclusive: 0.0657 µM [inhibitor, full curve, poor fit]"}
{"smiles": "Cc1ccc(Oc2cc(C)nc(-c3ccccc3O)n2)cc1", "Potency": "inconclusive: 2.94 µM [inhibitor, partial curve, poor fit]"}
{"smiles": "CC(C)(C)OC(=O)N1CCC[C@H]1C(=O)N/N=C/c1cccc2cccnc12", "Potency": "inconclusive: 8.28 µM [inhibitor, partial curve]"}
{"smiles": "O=C1C=C(Nc2ccc(Cl)cc2)C(=O)N1c1ccc(Cl)cc1", "Potency": "inactive"}
{"smiles": "O=C(CSc1ccccc1[N+](=O)[O-])NC1CCS(=O)(=O)C1", "note": "(stereo unspecified)", "Potency": "inconclusive: 5.22 µM [inhibitor, partial curve, poor fit]"}
{"smiles": "Cc1ccc(Sc2c(C=O)c3ccccc3n2C)cc1", "Potency": "inactive"}
{"smiles": "Cc1ccc(C)c(-n2sc3ccc(F)cc3c2=O)c1", "Potency": "active: 1.47 µM"}
{"smiles": "Cc1ccc(C(=O)Nc2ncccc2C)cc1S(=O)(=O)N1CCCCC1", "Potency": "inactive"}
{"smiles": "CN(CCCNC(=O)C1CCN(S(=O)(=O)c2cccc3nsnc23)CC1)Cc1ccccc1", "Potency": "inconclusive: 9.28 µM [inhibitor, partial curve, poor fit]"}
{"smiles": "CCN(C(=O)CN1C(=O)c2ccc([N+](=O)[O-])cc2C1=O)C1CCS(=O)(=O)C1", "note": "(stereo unspecified)", "Potency": "inactive"}
{"smiles": "COc1ccc(OC)c(-n2c(-c3ccc(O)cc3O)n[nH]c2=S)c1", "Potency": "active: 0.0131 µM"}
{"smiles": "Cc1[nH]c(C)c2c(=O)n(Cc3ccc(Cl)cc3)ncc12", "Potency": "inconclusive: 6.57 µM [inhibitor, partial curve]"}
{"smiles": "CCOCCCNC(=O)/C=C1\\Sc2ccccc2N(Cc2ccccc2F)C1=O", "Potency": "inconclusive: 18.5 µM [inhibitor, single point]"}
{"smiles": "Cc1cc(C)c(S(=O)(=O)NCc2cccs2)cc1C", "Potency": "inactive"}
{"smiles": "CCC1CCCCN1CCNC(=O)C1CCN(S(=O)(=O)c2cccc3nsnc23)CC1", "note": "(stereo unspecified)", "Potency": "inconclusive: 10.4 µM [inhibitor, single point]"}
{"smiles": "COc1ccc(NC(=O)c2ccc(C)cc2)cc1", "Potency": "inconclusive: 18.5 µM [inhibitor, single point]"}
{"smiles": "CCOc1ccccc1N(CC(=O)Nc1cccnc1)S(=O)(=O)c1ccc(C)cc1", "Potency": "inactive"}
{"smiles": "Cc1ccc(-c2nc(CS(=O)(=O)CC(=O)N3CCOCC3)c(C)o2)cc1", "Potency": "inconclusive: 18.5 µM [inhibitor, single point]"}
{"smiles": "CC(=O)c1cccc(NC(=O)COC(=O)CC2CC3CCC2C3)c1", "note": "(stereo unspecified)", "Potency": "inactive"}
{"smiles": "COc1ccc(CCNC(=O)C2CCN(C(=O)c3cccs3)CC2)cc1", "Potency": "inconclusive: 8.28 µM [inhibitor, single point]"}
{"smiles": "O=C(CSc1nnc(-c2ccco2)n1Cc1ccco1)N1CCOCC1", "Potency": "inconclusive: 9.28 µM [inhibitor, partial curve, poor fit]"}
{"smiles": "Cc1ccccc1OCC1Cn2c(nc3c2c(=O)[nH]c(=O)n3C)O1", "note": "(stereo unspecified)", "Potency": "inconclusive: 13.1 µM [inhibitor, single point]"}
{"smiles": "O=C1NC(=O)C2(C(=O)N1)C(c1ccc(F)cc1)NC(=S)NC2c1ccc(F)cc1", "note": "(stereo unspecified)", "Potency": "inconclusive: 18.5 µM [inhibitor, single point]"}
{"smiles": "COc1ccc(C)cc1NS(=O)(=O)c1ccc2c(c1)CCN2C(C)=O", "Potency": "inactive"}
{"smiles": "COc1ccc(C2=NOC(C(=O)NCc3ccc(F)cc3)C2)cc1OC", "note": "(stereo unspecified)", "Potency": "active: 2.33 µM"}
{"smiles": "Cc1ccc(OCC(=O)N(Cc2cccc(F)c2)C2CCS(=O)(=O)C2)cc1", "note": "(stereo unspecified)", "Potency": "active: 10.4 µM"}
